Construct, isoform or probe ends are uncertain for at least one entry. At least one result comes from cells or an extract, where the contact may be indirect.
Columns and labels:
[1] = molecular target: YY1 in UACC2331 melanoma nuclear extract (Homo sapiens (UACC2331 melanoma cells)) (UniProt P25490); test: EMSA supershift; conditions: anti-YY1 diminishes A-specific band, 10 mM Mg2+; protein in an extract
[2] = molecular target: YY1 in UACC903 melanoma nuclear extract (Homo sapiens (UACC903 melanoma cells)) (UniProt P25490); test: pull-down, quantitative mass spectrometry; conditions: polydAdT and polydIdC competitor; protein in an extract

Amino acid sequences for entries named in this document (tags omitted).
UniProt P25490, whole entry: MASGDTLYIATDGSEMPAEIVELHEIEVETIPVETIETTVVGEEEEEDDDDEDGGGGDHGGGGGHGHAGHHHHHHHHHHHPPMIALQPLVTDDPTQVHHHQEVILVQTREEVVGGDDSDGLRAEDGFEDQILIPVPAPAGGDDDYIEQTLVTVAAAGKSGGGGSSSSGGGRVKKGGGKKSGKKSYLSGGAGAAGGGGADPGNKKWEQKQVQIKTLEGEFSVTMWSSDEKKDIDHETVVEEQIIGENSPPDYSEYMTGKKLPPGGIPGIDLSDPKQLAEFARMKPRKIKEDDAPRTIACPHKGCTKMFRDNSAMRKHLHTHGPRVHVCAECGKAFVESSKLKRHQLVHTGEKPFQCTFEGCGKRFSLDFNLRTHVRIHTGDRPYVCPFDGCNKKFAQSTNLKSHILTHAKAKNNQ

Row | Sequence | binding result [1] | binding result [2]
1 | GTCCGTCCCAACATGGCGGGT (double strand) [rs398206 A allele EMSA probe] | binds | –
2 | GTCCGTCCCAACATGGCGGGT (double strand) [rs398206 A allele mass-spec probe] | – | binds
